The source of these data is article PMC6123365, “Pharmacokinetics of Nuciferine and N-Nornuciferine, Two Major Alkaloids From Nelumbo nucifera Leaves, in Rat Plasma and the Brain” (Frontiers in Pharmacology, 2018).

The structures appear in SMILES notation.

This data set can be described thus: In vitro recovery from the microdialysis probe with different perfusion fluids. Particulars: 2 μL/min.
[1] abbreviates: perfusion fluid aCSF containing 5 mM β-CD, 500 ng/mL.
The mark [2] stands for this setting: perfusion fluid aCSF containing 0.2% albumin, 500 ng/mL.
The mark [3] stands for this setting: perfusion fluid aCSF, 500 ng/mL standard solution.

As to `COc1cc2c3c(c1OC)-c1ccccc1CC3NCC2` (stereo not drawn) [N-NF, N-nornuciferine], the “Recovery from the microdialysis probe” value by setting is: under setting [1], 15.82%; under setting [2], 11.61%; under setting [3], 14.93%.
For `COc1cc2c3c(c1OC)-c1ccccc1C[C@H]3N(C)CC2` [NF, nuciferine], the “Recovery from the microdialysis probe” value is, setting by setting: under setting [1], 20.29%; under setting [2], 14.37%; under setting [3], 15.81%.
